Measured values published in paper PMC12040169 (PLOS Biology, 2025).
The other results are listed elsewhere or left out.

Each molecule was assayed on T1, CTL2-GFP (C. trachomatis L2/434/Bu, GFP-expressing). Conditions: bulk GFP, single well; 28.5 h, 10 µM; inhibitor.
T1 construct: L2/434/Bu, GFP-expressing
Set-up: species or system HeLa; Intracellular C. trachomatis growth in HeLa cells, bulk GFP fluorescence relative to DMSO

Row | SMILES | % of control remaining [%]
1 | c1ccc2c(c1)/C(=N/OCCCN1CCCCC1)CC21CCCCC1 [CBK013321] | 140.021
2 | CN(C)CCN1CCN(CC2(c3ccc(Cl)cc3)CC2)CC1 [CBK282783] | 103.921
3 | CCN1C(=O)c2ccccc2C(=O)[C@@]2(C)CN(C(=O)C3CC3)C[C@@H]12 [CBK284567] | 148.052
4 | CCn1cc(S(=O)(=O)NC2CCc3[nH]c4ccc(C)cc4c3C2)cn1 (stereo not drawn) [CBK304790] | 126.466
5 | CC(C)NS(=O)(=O)c1ccc(NS(=O)(=O)c2cc(C(=O)O)ccc2Cl)cc1 [CBK296951] | 144.171
6 | CCC1CCCCN1C(=O)c1sc2ncccc2c1N (stereo not drawn) [CBK081410] | 97.4204
7 | CN(C(=O)CN1CCCC1Cn1cccn1)C1(C#N)CCCCC1 (stereo not drawn) [CBK304571] | 94.6258
8 | Cc1nonc1CC(=O)N[C@H]1C2CCCCC2[C@@H]1c1ccccc1 (stereo partly drawn) [CBK285126] | 117.933
9 | CC1CN(C)C(c2ccccc2)C(C)C12NC(=O)NC2=O (stereo not drawn) [CBK288428] | 127.07
10 | CN1CCC2(CC1)NCCc1c2ccn1S(=O)(=O)c1ccc(I)cc1 [CBK061945C] | 117.672
11 | O=C(CCSS(=O)(=O)O)N1CCc2ccccc21 [CBK260892N] | 107.251
12 | Cc1cccc(OCC(=O)Nc2ccc(S(=O)(=O)N3CCOCC3)cc2)c1 [CBK264110] | 98.2351
13 | COCC(C)NC(=O)Cn1cccc2cc(C(F)F)nc1-2 (stereo not drawn) [CBK285011] | 93.8267
14 | COCc1nnc(SCC(=O)N2CCc3ccccc32)n1-c1ccccc1 [CBK269739] | 130.669
15 | COc1ccc(-c2cc(=O)oc3cc(OC(C)C(=O)O)ccc23)cc1 (stereo not drawn) [CBK286696] | 92.4838
16 | CC(=O)NC[C@H]1CN(c2ccc(C3=CC[S+]([O-])CC3)c(F)c2)C(=O)O1 (stereo partly drawn) [CBK017555] | 0.258
17 | CC(NC(C)(C)C)C(O)COc1ccc(Cl)c2c1C1CCC2CC1 (stereo not drawn) [CBK017752C] | 59.0739
18 | CCOc1ccc(NC(=O)C2CC=CCC2C(=O)O)cc1 (stereo not drawn) [CBK274682] | 83.3779
19 | Cc1ccc(CNC(=O)Cn2nnc(-c3ccc(CN4CCCC(C(F)(F)F)C4)cc3)n2)cc1 (stereo not drawn) [CBK144562C] | 106.456
20 | COc1ccc(NC(=O)CSc2ncnc3ccccc23)cc1 [CBK270215] | 125.621
21 | CC(C)(CO)NC(=O)c1cc(S(=O)(=O)N2CCOCC2)ccc1Cl [CBK269748] | 118.665
22 | O=C1CC(c2ccccc2)CC(NCc2ccc3c(c2)OCO3)=C1C(=S)Nc1ccccc1 (stereo not drawn) [CBK264890] | 105.236
23 | O=C(Cc1cccs1)NCCc1c[nH]cn1 [CBK269805] | 140.224
24 | COCCn1cnnc1CCNC(=O)Cc1cccc(O)c1 [CBK307322] | 104.776
25 | O=C(Cn1c(-c2cccs2)cc2cccnc21)N1CCC(O)CC1 [CBK282458] | 94.5143
26 | Cc1nc2ccccc2c(=O)n1CC(N)=O [CBK004145] | 113.792

Row | SMILES | % of control remaining [%]
27 | CC1=NN(c2ccc([N+](=O)[O-])cc2)C(=O)/C1=C\NCCN1CCN(C(=O)c2ccc(Br)cc2)CC1 [CBK261788] | 104.064
28 | COc1ccc([C@@]23CC[C@@H](NC(=O)Nc4cc(F)c(F)c(F)c4)C[C@@H]2N(C)CC3)c(F)c1OC [CBK073909T] | 112.509
29 | O=C1CN=C(N2C(=O)C3C4C=CC(C4)C3C2=O)C(=O)N1 (stereo not drawn) [CBK028818] | 104.097
30 | CCC(c1ccc2ccccc2c1)c1c(O)c2ccccc2oc1=O (stereo not drawn) [CBK016681] | 114.466
31 | CC(C(=O)N(C)C)n1cccc1 (stereo not drawn) [CBK012421] | 132.64
32 | O=C(O)c1cccc2c3c([nH]c12)CCCCC3 [CBK003451] | 122.259
33 | O=C(O)CC(NS(=O)(=O)c1cccc2nsnc12)C(=O)O (stereo not drawn) [CBK073316] | 105.337
34 | Cc1nc(CSc2nc3sc4c(c3c(=O)n2-c2ccccc2)CCCCC4)cs1 [CBK265706] | 123.349
35 | Cc1ccc(NS(=O)(=O)c2ccc(NC(=O)c3ccc(CN4CCOCC4)cc3)cc2)c(C)c1 [CBK264815] | 99.1887
36 | COc1cc(C(=O)NCC(=O)O)cc(OC)c1OC [CBK261039] | 124.11
37 | O=C1N[C@@]2(CC3CCC2CC3C(=O)N2CCCC2)Nc2ccccc21 (stereo partly drawn) [CBK284449] | 110.674
38 | COC(=O)c1nn(-c2ccccc2)c2cc([N+](=O)[O-])ccc12 [CBK115321] | 126.7
39 | COc1ccc2nc(NC(=O)c3ccc4ncsc4c3)sc2c1 [CBK287364] | 136.921
40 | Cc1ccccc1OCc1nn2c(C)nnc2s1 [CBK269220] | 123.281
41 | Cc1c(NC(=O)CCCC(=O)O)c(=O)n(-c2ccccc2)n1C [CBK286532] | 163.533
42 | CS(=O)(=O)c1ccc(-c2cnc(N)c(NC3CCC(O)CC3)n2)cc1 (stereo not drawn) [CBK063865] | 78.4768
43 | COc1cc(NC(=O)c2cccnc2)c(Cl)cc1NC(=O)c1ccc(Cl)cc1 [CBK033522] | 100
44 | CC1=NN(c2nc(-c3ccc(Br)cc3)cs2)C(=O)C1/N=N/c1ccc(C(=O)O)cc1 (stereo not drawn) [CBK262435] | 100
45 | O=C(Nc1ccc2c(c1)oc1ccccc12)C1CCCO1 (stereo not drawn) [CBK270168] | 123.861
46 | O=C(c1ccco1)N1CCC2(CCCNC2)C1 (stereo not drawn) [CBK153233C] | 116.87
47 | O=C(O)c1ccc(OCCNS(=O)(=O)c2ccc3ccccc3c2)cc1 [CBK299807] | 105.553
48 | O=c1[nH]cc(-c2ccccc2)cc1CNc1cccc2ncccc12 [CBK284771] | 80.1289
49 | COc1ccc(NC(=O)CSc2nnc(N)s2)cc1 [CBK058635] | 103.555
50 | O=C(CCN1CCCCC1)Nc1cnc(-c2ccc(F)cc2)c(-c2ccsc2)n1 [CBK036846] | 81.1751
51 | O=C(c1ccc(NS(=O)(=O)c2ccccc2)cc1)N1CCN(Cc2ccc3c(c2)OCO3)CC1 [CBK267957] | 93.5162
52 | COc1cccc(CS(=O)(=O)c2c(Br)sc3ccnc(N4CCNCC4)c23)c1 [CBK038956C] | 127.595

Compounds 36 to 41, quoted:
Row | SMILES | % of control remaining [%]
36 | COc1cc(C(=O)NCC(=O)O)cc(OC)c1OC [CBK261039] | 124.11
37 | O=C1N[C@@]2(CC3CCC2CC3C(=O)N2CCCC2)Nc2ccccc21 (stereo partly drawn) [CBK284449] | 110.674
38 | COC(=O)c1nn(-c2ccccc2)c2cc([N+](=O)[O-])ccc12 [CBK115321] | 126.7
39 | COc1ccc2nc(NC(=O)c3ccc4ncsc4c3)sc2c1 [CBK287364] | 136.921
40 | Cc1ccccc1OCc1nn2c(C)nnc2s1 [CBK269220] | 123.281
41 | Cc1c(NC(=O)CCCC(=O)O)c(=O)n(-c2ccccc2)n1C [CBK286532] | 163.533

Following part

Row | SMILES | % of control remaining [%]
53 | O=C(Nc1cc(N2CCCS2(=O)=O)ccc1F)c1n[nH]c2ccccc12 [CBK304216] | 90.6825
54 | COc1ccc(C(=O)C2=C(O)C(=O)N(CCN3CCNCC3)C2c2ccccc2F)cc1 (stereo not drawn) [CBK264666] | 124.971
55 | CC(C)NC(=O)C[C@@H]1c2nc(-c3ccccc3)sc2C[C@@H]2[C@](C)(CO)[C@H](O)CC[C@]21C [CBK289570] | 138.595
56 | Sc1nnc(-c2ccncc2)n1CCc1ccccc1 [CBK265819] | 124.136
57 | CC(=O)NC[C@H]1CN(c2ccc(-c3nnc([C@@H](C)N)s3)c(F)c2)C(=O)O1 [CBK017966] | 7.413
58 | CC(C)=NNC(=O)CSc1nc(N2CCOCC2)c2ccccc2n1 [CBK009114] | 134.615
59 | COCCn1cnnc1C(C)NC(=O)Cn1cc2ccccc2n1 (stereo not drawn) [CBK307047] | 129.666
60 | Cc1cc(O)nc(C(C)N2CCCN(CC(F)(F)F)CC2)n1 (stereo not drawn) [CBK305491] | 87.937
61 | COc1ccc([C@@]23CC[C@@H](NC(=O)Nc4ccc(Cl)nc4)C[C@@H]2N(C)CC3)cc1OC [CBK045764] | 124.361
62 | O=S(=O)(c1ccccc1)C1C2C=CC(COC3CCCCO3)(O2)C1S(=O)(=O)c1ccccc1 (stereo not drawn) [CBK020045] | 140.581
63 | O=C(O)c1ccccc1C(=O)N1CCC2(CC1)NCCc1c2[nH]c2ccccc12 [CBK047235] | 112.192
64 | Cc1ccc(S(=O)(=O)c2ccc(C)c(S(=O)(=O)N3CCOCC3)c2)cc1S(=O)(=O)N1CCOCC1 [CBK261677] | 115.596
65 | c1coc(CNc2nc(-c3ccoc3)cn3ccnc23)c1 [CBK066610] | 105.904
66 | COc1ccc(Oc2nccnc2N2CCN(Cc3ccc(Cl)cc3)CC2)cc1OC [CBK083041T] | 102.662
67 | O=c1nc(NS(=O)(=O)c2ccccc2Br)c(F)c[nH]1 [CBK067573] | 131.334
68 | CCOc1ccc2[nH]c(C(=O)NC3CCCN(C)C3)c(C)c2c1 (stereo not drawn) [CBK282530] | 71.6934
69 | O=C(NCCc1c[nH]c2ccc(Cl)cc12)c1cc(F)c(Cl)cc1F [CBK159763] | 110.001
70 | O=C(c1ccco1)N1CCC(n2cnc3cccnc32)CC1 [CBK283939] | 129.167
71 | N#Cc1ccc(CN2CCCN(C(=O)c3cccc(F)c3)CC2)cc1 [CBK304010] | 97.7662
72 | Cc1noc(C)c1CCC(=O)N1CC[C@H]2NC(=O)c3ccccc3OCCCCC[C@H]2C1 [CBK292036] | 115.111
73 | CCCc1cc(C(=O)OC)c(NC(=O)C2CC=CCC2C(=O)O)s1 (stereo not drawn) [CBK265397] | 98.4519
74 | Cc1ccc(C)c(NC(=O)CCNC(=O)c2cnn3cc(C)cnc23)c1 [CBK306590] | 125.73
75 | Nc1cc(N)nc(SCc2ccccc2)n1 [CBK261266] | 92.0097
76 | CN1[C@@H]2CC[C@H]1C[C@@H](N1Cc3cc4ccccc4n3C1=O)C2 [CBK017722] | 95.2683
77 | c1ccc2c(OCc3nc4ccccc4[nH]3)cccc2c1 [CBK262969] | 42.8856
78 | Cc1ccc(C2CC(c3cccnc3)Nc3nnnn32)cc1 (stereo not drawn) [CBK288067] | 118.113
